This test deals with PbRpt3-mCherry (endogenously C-terminally mCherry-tagged PbRpt3) (Plasmodium berghei). Description: affinity purification with mass spectrometry.

Results are given in words; binding and its absence hold for the method and conditions named. Binding seen in cells or lysates may run through a third protein. Here binding means that the protein was enriched with, or labelled near, the bait; the list need not be complete.

As for “CDC73 domain-containing protein (from UniProt A0A509AQS0)”, the binding entry was “binds”. “DNA directed RNA polymerase 3 largest subunit (from UniProt A0A509AXN1)”: the binding entry is “binds”. Next, “acetyltransferase ARD1 (from UniProt A0A509AQ99) (enzyme)”: “binds”; “acetyltransferase MYST (from UniProt A0A509ALZ7) (enzyme)”: “binds”.

Turning to “calcium dependent protein kinase 7 (CDPK7) (from UniProt A0A509AJV2) (enzyme)”, the binding result is recorded as “binds”.

Consider “double C2-like domain-containing protein (DOC2) (from UniProt A0A509ASV2)”, for which the binding result is “binds”. Next, “phosphoinositide-binding protein (PBANKA_0618200) (from UniProt A0A509AH92)”: “binds”. As for “phosphoinositide-binding protein PH2 (from UniProt A0A509ASP7)”, the binding entry is reported as “binds”. Next, “phosphoinositide-specific phospholipase C (PI-PLC) (from UniProt A0A509ATV4) (enzyme)”: “binds”; “transcription factor TFIID (from UniProt A0A509AKV9)”: “binds”.
